According to patent EP4538285A1:
No constants are given. Whether binding was seen depends on the method and setting. Some binding calls cover weakened binding; strength is not graded here.

Biological target: hPD-L1-Fc (PD-L1 fused to an Fc derived from human IgG1) (human) (UniProt Q9NZQ7+P01857)
Assay: flow cytometry, variant on 293T cells, PD-L1-Fc

binding: binds
B1: PD-1 variant SEQ ID NO: 7, expressed on cells (108-CD28 enhanced receptor) (receptor)
chain: PGWFLDSPDRPWNPPTFSPALLVVTEGDNATFTCSFSNTSESFVLNWYRMSPSNQTDKLAAFPEDRINRSQDCRFRVTQLPNGRDFHMSVVRARRNDSGTYLCGAISLSTPVWIKESLRAELRVTERRAEVPTAHPSPSPRPAGQFQTLVVGVVGGLLGSLVLLVWVLAVIRSKRSRLLHSDYMNMTPRRPGPTRKHYQPYAPPRDFAAYRS
